Reference: publication PMC4695125
These are yes or no findings as the source states them, for the method shown. For some assays here: Binding seen in cells or lysates may run through a third protein. Some results given as binding are weak or reduced against the parent protein; the word gives no strength.

The chains behind the UniProt entries cited, without tags or fusion partners. Residues count along the entry.
UniProt Q15109, residues 23-342: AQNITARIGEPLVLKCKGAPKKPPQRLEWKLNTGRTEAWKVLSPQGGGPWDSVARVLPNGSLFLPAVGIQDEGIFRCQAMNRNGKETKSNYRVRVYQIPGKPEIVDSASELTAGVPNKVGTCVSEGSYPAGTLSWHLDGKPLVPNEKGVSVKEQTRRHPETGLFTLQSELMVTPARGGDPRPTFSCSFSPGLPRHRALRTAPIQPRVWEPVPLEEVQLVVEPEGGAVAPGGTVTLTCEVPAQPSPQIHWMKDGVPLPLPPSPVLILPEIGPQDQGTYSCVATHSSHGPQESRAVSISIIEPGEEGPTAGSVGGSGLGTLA
UniProt P27695: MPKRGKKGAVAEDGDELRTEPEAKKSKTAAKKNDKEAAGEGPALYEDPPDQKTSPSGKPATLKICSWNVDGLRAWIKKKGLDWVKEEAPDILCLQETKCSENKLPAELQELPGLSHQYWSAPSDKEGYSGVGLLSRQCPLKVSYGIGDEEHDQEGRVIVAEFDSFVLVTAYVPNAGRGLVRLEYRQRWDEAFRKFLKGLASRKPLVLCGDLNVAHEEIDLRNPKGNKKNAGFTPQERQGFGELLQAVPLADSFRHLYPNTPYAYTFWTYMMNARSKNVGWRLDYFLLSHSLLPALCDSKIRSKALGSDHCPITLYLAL

Assays:
[1] = biological target: recombinant human RAGE-Fc (human) (UniProt Q15109); experiment: co-IP; recombinant rh Ac-APE1/Ref-1 mixed with rh RAGE-Fc; immunoprecipitation with anti-APE1/Ref-1 or anti-RAGE antibody, blot with the other; both purified
[2] = biological target: recombinant human RAGE-Fc (human) (UniProt Q15109); experiment: co-IP; conditioned medium of ASA-treated MDA-MB-231 cells (secreted Ac-APE1/Ref-1) mixed with RAGE-Fc; immunoprecipitation with anti-APE1/Ref-1 or anti-RAGE antibody, blot with the other; only the target purified

Substance	binding [1]	binding [2]
recombinant human acetylated APE1/Ref-1 (apurinic apyrimidinic endonuclease 1/redox factor-1) (from UniProt P27695 1-318)	binds	–
secreted acetylated APE1/Ref-1 from ASA/TSA-treated MDA-MB-231 cells (from UniProt P27695 1-318)	–	binds
